Source: article PMC5668257
No constants are given. Whether binding was seen depends on the method and setting. Binding seen in cells or lysates may run through a third protein.

Chains of the proteins cited; added tags and fusions are not shown.
UniProt Q9GKK5: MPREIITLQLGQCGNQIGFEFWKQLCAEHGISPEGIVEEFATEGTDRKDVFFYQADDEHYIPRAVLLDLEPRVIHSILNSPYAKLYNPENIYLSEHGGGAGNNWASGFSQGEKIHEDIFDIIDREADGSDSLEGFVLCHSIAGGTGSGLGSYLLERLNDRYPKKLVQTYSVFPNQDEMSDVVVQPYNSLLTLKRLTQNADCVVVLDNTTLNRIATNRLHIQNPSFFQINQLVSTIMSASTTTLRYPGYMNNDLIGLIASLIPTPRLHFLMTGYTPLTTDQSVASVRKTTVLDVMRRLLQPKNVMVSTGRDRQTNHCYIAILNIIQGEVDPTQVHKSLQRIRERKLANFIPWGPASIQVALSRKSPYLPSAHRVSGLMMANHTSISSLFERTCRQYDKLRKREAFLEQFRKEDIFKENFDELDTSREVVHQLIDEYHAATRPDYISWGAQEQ
UniProt A0A8I3PST2: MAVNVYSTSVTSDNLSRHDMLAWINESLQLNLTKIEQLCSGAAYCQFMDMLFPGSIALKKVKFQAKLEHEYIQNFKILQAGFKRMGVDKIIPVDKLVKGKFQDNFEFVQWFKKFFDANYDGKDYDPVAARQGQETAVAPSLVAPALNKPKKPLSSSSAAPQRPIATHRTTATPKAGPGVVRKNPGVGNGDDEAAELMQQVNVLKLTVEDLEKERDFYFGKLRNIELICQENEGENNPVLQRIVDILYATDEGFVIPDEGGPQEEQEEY

Target: γ-tubulin (dog (endogenous in MDCK)) (UniProt Q9GKK5)
Assay: FRET or BRET; immuno-FRET by acceptor photobleaching at the centrosome area of fixed mitotic MDCK cells; primary antibodies with secondary antibodies labelled with Alexa 555 (donor) and Cy5 or Alexa 633 (acceptor), 1 donor : 2 acceptor

binding: no binding
Substance: EB1 (from UniProt A0A8I3PST2 1-268)
